{"source": "the supplement of paper PMC7238544", "note": "Counter-ions that a name gives are not always drawn. ± gives the standard deviation of the averaged measurements. The list shows a part of the results. The data scatter; read single values as rough."}
{"tested_on": "hAMSC donor 1", "experiment": "Hoechst total cell count ratio vs vehicle control; hAMSC are human adipose-derived mesenchymal stem cells given an EGFP-luciferase plasmid by lipofection; higher = more cells (less toxicity)", "conditions": "priming compound concentration 1.7 µM"}
{"smiles": "O=C1NC(=O)C(c2ccccc2)(c2ccccc2)N1", "note": "[Dilantin]", "Hoechst total cell count ratio": "1.26 ± 0.094"}
{"smiles": "CC(C)C[C@H](NC(=O)[C@@H](COC(C)(C)C)NC(=O)[C@H](Cc1ccc(O)cc1)NC(=O)[C@H](CO)NC(=O)[C@H](Cc1c[nH]c2ccccc12)NC(=O)[C@H](Cc1cnc[nH]1)NC(=O)[C@@H]1CCC(=O)N1)C(=O)N[C@@H](CCCNC(=N)N)C(=O)N1CCC[C@H]1C(=O)NNC(N)=O", "note": "[Goserelin acetate]", "Hoechst total cell count ratio": "1.08 ± 0.071"}
{"smiles": "O=C1CN(/N=C/c2ccc(-c3ccc([N+](=O)[O-])cc3)o2)C(=O)N1", "note": "[Dantrolene sodium]", "Hoechst total cell count ratio": "1.25 ± 0.086"}
{"smiles": "CCN(CC)CC(=O)Nc1c(C)cccc1C", "note": "[Lidocaine]", "Hoechst total cell count ratio": "1.07 ± 0.052"}
{"smiles": "C=CC[C@@H]1/C=C(\\C)C[C@H](C)C[C@H](OC)[C@H]2O[C@@](O)(C(=O)C(=O)N3CCCC[C@H]3C(=O)O[C@H](/C(C)=C/[C@@H]3CC[C@@H](O)[C@H](OC)C3)[C@H](C)[C@@H](O)CC1=O)[C@H](C)C[C@@H]2OC", "note": "[Tacrolimus]", "Hoechst total cell count ratio": "1.5 ± 0.1"}
{"smiles": "CC[C@@H](CO)NCCN[C@@H](CC)CO", "note": "[Ethambutol]", "Hoechst total cell count ratio": "1.17 ± 0.068"}
{"smiles": "O=C(O)CCCc1ccccc1", "note": "[4-Phenylbutyric acid]", "Hoechst total cell count ratio": "1.05 ± 0.094"}
{"smiles": "O=c1c(-c2ccccc2)c1-c1ccccc1", "note": "[Diphenylcyclopropenone]", "Hoechst total cell count ratio": "1.01 ± 0.048"}
{"smiles": "CC(C)(C(=O)c1cccnc1)c1cccnc1", "note": "[Metyrapone]", "Hoechst total cell count ratio": "0.806 ± 0.032"}
{"smiles": "COc1c(N2CCNC(C)C2)c(F)cc2c(=O)c(C(=O)O)cn(C3CC3)c12", "note": "(configuration not stated) [Gatifloxacin]", "Hoechst total cell count ratio": "1.09 ± 0.083"}
{"smiles": "Cc1cnc(C(=O)NCCc2ccc(S(=O)(=O)NC(=O)NC3CCCCC3)cc2)cn1", "note": "[Glipizide]", "Hoechst total cell count ratio": "1.12 ± 0.035"}
{"smiles": "Clc1ccc(CO/N=C(\\Cn2ccnc2)c2ccc(Cl)cc2Cl)c(Cl)c1", "note": "[Oxiconazole nitrate]", "Hoechst total cell count ratio": "1.52 ± 0.25"}
{"smiles": "CN1CCN(CCCN2c3ccccc3Sc3ccc(Cl)cc32)CC1", "note": "[Prochlorperazine maleate]", "Hoechst total cell count ratio": "0.993 ± 0.028"}
{"smiles": "C=C1/C(=C\\C=C2/CCC[C@]3(C)[C@@H]([C@H](C)CCCC(C)(C)O)CC[C@@H]23)C[C@@H](O)C[C@@H]1O", "note": "[Calcitriol]", "Hoechst total cell count ratio": "1.11 ± 0.036"}
{"smiles": "C#C[C@]1(O)CC[C@H]2[C@@H]3CCc4cc(OC)ccc4[C@H]3CC[C@@]21C", "note": "[Mestranol]", "Hoechst total cell count ratio": "1.23 ± 0.11"}
{"smiles": "Nc1ccn([C@@H]2O[C@H](CO)[C@@H](O)[C@@H]2O)c(=O)n1", "note": "[Cytarabine]", "Hoechst total cell count ratio": "1.09 ± 0.088"}
{"smiles": "COc1cccc2c1C(=O)c1c(O)c3c(c(O)c1C2=O)C[C@@](O)(C(C)=O)C[C@@H]3O[C@H]1C[C@H](N)[C@H](O)[C@H](C)O1", "note": "[Daunorubicin hydrochloride]", "Hoechst total cell count ratio": "0.086 ± 0.035"}
{"smiles": "CC/C(=C(\\c1ccccc1)c1ccc(OCCN(C)C)cc1)c1ccccc1", "note": "[Tamoxifen]", "Hoechst total cell count ratio": "1.58 ± 0.26"}
{"smiles": "COc1ccc(CN2CCN(C(c3ccc(F)cc3)c3ccc(F)cc3)CC2)c(OC)c1OC", "note": "[Lomerizine dihydrochloride]", "Hoechst total cell count ratio": "1.13 ± 0.15"}
{"smiles": "CC(C)NCC(O)COc1cccc2ccccc12", "note": "(configuration not stated) [Propranolol hydrochloride]", "Hoechst total cell count ratio": "1.26 ± 0.036"}
{"smiles": "CN[C@@H]1[C@H](O)[C@H](NC)[C@H]2O[C@@]3(O)C(=O)C[C@@H](C)O[C@H]3O[C@@H]2[C@H]1O", "note": "[Spectinomycin]", "Hoechst total cell count ratio": "1.23 ± 0.26"}
{"smiles": "C=C[C@H]1CN2CC[C@H]1C[C@@H]2[C@@H](O)c1ccnc2ccc(OC)cc12", "note": "[Quinidine]", "Hoechst total cell count ratio": "1.52 ± 0.065"}
{"smiles": "N[C@@H]1CONC1=O", "note": "[D-Cycloserine]", "Hoechst total cell count ratio": "1.23 ± 0.19"}
{"smiles": "CC(C)NCC(O)c1ccc(O)c(O)c1", "note": "(configuration not stated) [Isoproterenol hydrochloride]", "Hoechst total cell count ratio": "1.55 ± 0.078"}
{"smiles": "NC(=O)c1cccnc1", "note": "[Nicotinamide]", "Hoechst total cell count ratio": "1.35 ± 0.18"}
{"smiles": "CC(=O)Oc1ccccc1C(=O)Nc1ncc([N+](=O)[O-])s1", "note": "[Nitazoxanide]", "Hoechst total cell count ratio": "1.1 ± 0.096"}
{"smiles": "Cc1nc2ccccn2c(=O)c1CCN1CCC(C(=O)c2ccc(F)cc2)CC1", "note": "[Pirenperone]", "Hoechst total cell count ratio": "1.21 ± 0.15"}
{"smiles": "CC(C)(C(=O)O)c1ccc(C(O)CCCN2CCC(C(O)(c3ccccc3)c3ccccc3)CC2)cc1", "note": "(configuration not stated) [Fexofenadine hydrochloride]", "Hoechst total cell count ratio": "1.5 ± 0.2"}
{"smiles": "CC1CNc2c(cccc2S(=O)(=O)N[C@@H](CCCNC(=N)N)C(=O)N2CC[C@@H](C)C[C@@H]2C(=O)O)C1", "note": "(some centres not stated) [Argatroban]", "Hoechst total cell count ratio": "1.23 ± 0.13"}
{"smiles": "O=c1[nH]cnc2c1ncn2[C@H]1CC[C@@H](CO)O1", "note": "[Didanosine]", "Hoechst total cell count ratio": "1.24 ± 0.22"}
{"smiles": "CC(C)NCC(O)COc1ccc(COCCOC(C)C)cc1", "note": "(configuration not stated) [Bisoprolol fumarate]", "Hoechst total cell count ratio": "1.25 ± 0.097"}
{"smiles": "CCN1CCN(c2cc3c(cc2F)c(=O)c(C(=O)O)cn3C2CC2)CC1", "note": "[Enrofloxacin]", "Hoechst total cell count ratio": "1.22 ± 0.21"}
